# Reference: PubChem BioAssay AID540335 (Broad Institute, 2011)
# Out of some 1,300 compounds screened, about 270 (21%) were called active.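 How the source made its calls: active means dose-dependent rise or fall in viability, either side of zero, with half-maximal concentration at or below a set limit; inconclusive means flat curve at 30 to 70% viability loss, or poor fit; inactive means flat within 30% either way, or potency beyond limit.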 The list shows a part of the results. Results with a measured potency or affinity are listed apart.
# Test: proliferation inhibition in MITF-low A375 cells – cell-based, cherry-pick samples, set 2, counter-screen for MITF modulator project, dose response (AID 540335);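 further: A375 human melanoma cells which do not depend on MITF; 0% = median of neutral control wells and 100% = double that signal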
# Settings: CellTiter-Glo ATP luminescence, 24 h; at 35 µM (top of the series)
row,Compound,"activity change, negative = decreased viability"
1,O=c1c(Cl)c2oc3ccccc3nc-2c2ccccc12,inactive: -8.83%
2,O=C(Nc1cccc(S(=O)(=O)N2CCCCC2)c1)c1ccc([N+](=O)[O-])o1,inactive: -10.1%
3,COc1ccc(-c2nc(-c3ccccc3OC)no2)cc1OC,inactive: 1.79%
4,COc1ccc(C(=O)NCC(=O)c2ccccc2)cc1,inactive: -5.61%
5,O=C(/C=C/c1ccc2c(c1)OCCO2)c1ccccc1,inactive: -9.23%
6,O=C(/C=C/NNC(=O)c1ccccc1)c1ccc([N+](=O)[O-])cc1,inactive: -38.3%
7,Cc1c(Cl)c([N+](=O)[O-])nn1Cc1ccc(C(=O)N/N=C\c2cc(Cl)ccc2O)o1,inactive: -24.9%
8,COc1ccc(C(=O)/C=C/C(=O)N(CC(=O)NC2CCCCC2)Cc2ccc(F)cc2)c(O)c1,inactive: -9.41%
9,CC(=O)Nc1ccc(S(=O)(=O)N2CCn3cccc3C2C)cc1 (stereo not drawn),inactive: 3.9%
10,O=C(NC1=NCCS1)c1ccc(Cl)c(Cl)c1,inactive: -3.52%
11,COc1c(C)cccc1C(=O)Nc1ccc(N2CCN(S(C)(=O)=O)CC2)cc1,inactive: 9.28%
12,N/C(=N\OC(=O)c1ccccc1)c1ccccn1,inactive: -22.6%
13,Cc1ccccc1C(=O)O/N=C(\N)c1ccc([N+](=O)[O-])cc1,inactive: 10.1%
14,COCC(C)Nc1ncnc2c1cnn2-c1ccc(Cl)cc1 (stereo not drawn),inactive: 5.28%
15,COc1cccc(/C=N/NC(=O)CN2CC(c3ccccc3)CC2=O)c1OC (stereo not drawn),inactive: 13.7%
16,O=C(N/N=C/C(Cl)=C\c1ccccc1)c1cccs1,inactive: -9.05%
17,O=C(Cn1ncc(Cl)c(Cl)c1=O)NCC1CCCCC1,inactive: -26.7%
18,O=C(NC1=NCCS1)C1COc2ccccc2O1 (stereo not drawn),inactive: -22.8%
19,O=C(Cc1ccccc1)Nc1ccc(NC(=O)c2ccco2)nc1,inactive: -4.08%
20,CCOC(=O)c1ccc(NC(=O)c2ccc(C)c(S(=O)(=O)N3CCOCC3)c2)cc1,inactive: -15.2%
21,O=C(O)c1cccc(N/N=C/c2ccc(OC(F)(F)F)cc2)c1,inactive: 14.9%
22,CCOc1cc(/C=N/Nc2cccc(C(=O)O)c2)ccc1OC(=O)c1ccccc1,inactive: 14.3%
23,CCCOc1ccc(C(=O)Nc2ccc3c(c2)OCCO3)cc1,inactive: 0.175%
24,O=C(Nc1ccc(F)cc1F)c1cc2ccccc2oc1=O,inactive: -5.16%

# Part of the list above, with bars between the fields:
row | Compound | activity change, negative = decreased viability
10 | O=C(NC1=NCCS1)c1ccc(Cl)c(Cl)c1 | inactive: -3.52%
11 | COc1c(C)cccc1C(=O)Nc1ccc(N2CCN(S(C)(=O)=O)CC2)cc1 | inactive: 9.28%
12 | N/C(=N\OC(=O)c1ccccc1)c1ccccn1 | inactive: -22.6%
13 | Cc1ccccc1C(=O)O/N=C(\N)c1ccc([N+](=O)[O-])cc1 | inactive: 10.1%
14 | COCC(C)Nc1ncnc2c1cnn2-c1ccc(Cl)cc1 (stereo not drawn) | inactive: 5.28%
15 | COc1cccc(/C=N/NC(=O)CN2CC(c3ccccc3)CC2=O)c1OC (stereo not drawn) | inactive: 13.7%
16 | O=C(N/N=C/C(Cl)=C\c1ccccc1)c1cccs1 | inactive: -9.05%
17 | O=C(Cn1ncc(Cl)c(Cl)c1=O)NCC1CCCCC1 | inactive: -26.7%
18 | O=C(NC1=NCCS1)C1COc2ccccc2O1 (stereo not drawn) | inactive: -22.8%
19 | O=C(Cc1ccccc1)Nc1ccc(NC(=O)c2ccco2)nc1 | inactive: -4.08%
20 | CCOC(=O)c1ccc(NC(=O)c2ccc(C)c(S(=O)(=O)N3CCOCC3)c2)cc1 | inactive: -15.2%
21 | O=C(O)c1cccc(N/N=C/c2ccc(OC(F)(F)F)cc2)c1 | inactive: 14.9%
22 | CCOc1cc(/C=N/Nc2cccc(C(=O)O)c2)ccc1OC(=O)c1ccccc1 | inactive: 14.3%

# (further entries)

row,Compound,"activity change, negative = decreased viability"
1,COc1cccc(C(=O)Oc2c(CN3CCOCC3)cc(Cl)c3cccnc23)c1,inactive: -37.8%
2,COc1cc(OC)cc(C(=O)Nc2ccc3c(c2)OCCO3)c1,inactive: -32.1%
3,O=C(CCCCC(=O)NN=Cc1ccccc1O)NN=Cc1ccccc1O,inactive: -2.24%
4,CCN1CCN(c2ccc(S(=O)(=O)N3CCCCC3)cc2NC(=O)/C=C/c2cccc(OC)c2OC)CC1,inactive: -14.7%
5,CC(/C=C1\SC(=O)N(CCCC(=O)O)C1=O)=C\c1ccccc1,inactive: -0.65%
6,CC1(C)Cc2c(sc(NC(=O)Nc3ccccc3)c2C(N)=O)CO1,inactive: 5.17%
7,CS(=O)(=O)c1ccc2nc(NC(=O)c3ccccc3Br)sc2c1,inactive: -3.48%
8,Cc1cccc(NC(=O)c2ccc([N+](=O)[O-])o2)c1C,inactive: -10.1%
9,C=C1C(=O)O[C@@]23[C@H]1CC[C@@H](C)[C@@H]2CC[C@@]1(C)O[C@@H]31,inactive: 2.09%
10,O=C(Nc1ccccc1)C1Cc2ccccc2CN1C(=O)c1ccco1 (stereo not drawn),inactive: -1.41%
11,CCN1CCCC1CNC(=O)c1ccc2c(c1)NC(=O)/C(=C\c1ccc(OC)c(OC)c1)S2 (stereo not drawn),inactive: 0.004%
12,COC(=O)c1ccc(-n2c(C)cc(C(=O)CCl)c2C)cc1,inactive: 2.38%
13,CCC(=O)NCCc1nc2cc(NC(=O)c3cccc([N+](=O)[O-])c3)ccc2n1C,inactive: 1.21%
14,O=C(O)c1ccc(C(=O)Nc2ccc(F)cc2)cc1,inactive: -13.5%
15,Oc1c(Cl)cc(Cl)cc1/C=N/Nc1ncc(Br)cn1,inactive: -35.9%
16,CCOC(=O)c1sc(-c2ccccc2)cc1N,inactive: -1.43%
17,COc1ccccc1N1CCN(/N=C/c2ccc([N+](=O)[O-])cc2)CC1,inactive: -11.3%
18,CC(=O)Nc1cccc(-c2nnc(-c3ccccc3)o2)c1,inactive: 11.6%
19,Cc1nc(NC(=O)/C=C/c2ccccc2)n[nH]1,inactive: -26.7%
20,Cc1ccc(-n2nnnc2CNC(=O)c2ccc([N+](=O)[O-])o2)cc1C,inactive: 9.47%
21,Cc1ccc(-n2ncc3c(SCC(N)=O)ncnc32)cc1C,inactive: 8.68%
22,CCOc1cc(/C=C(/C#N)c2ccc(Cl)cc2)cc(Cl)c1OCC(=O)O,inactive: -0.225%
23,CC(=NNc1nc2ccccc2o1)c1cc2ccccc2cn1,inactive: -38.7%
24,CCC(=O)OCCNc1cc(Sc2nccn2C)c2nonc2c1[N+](=O)[O-],inactive: 9.58%
